Experimental data: patent US20170335004A1
Results are given in words; binding and its absence hold for the method and conditions named. Some results given as binding are weak or reduced against the parent protein; the word gives no strength. Tags and fused reporters may be left off the sequences shown.

Molecular target: T1, Recombinant human Fn14 R58A mutant (extracellular domain, His-tagged) (human) (UniProt Q9NP84)
T1 sequence: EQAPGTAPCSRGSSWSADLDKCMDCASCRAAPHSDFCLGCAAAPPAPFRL
Assay: ELISA on coated R58A mutant, antibody 0.5-0.008 µg/ml

- binding: binds
B1: human antibody 3.6 (antibody, V domains shown)
VH: QVQLVQSGGGLVKPGGSLRLSCAASGFTFTSYAMSWVRQAPGKGLEWVSAISGSGGSTYYADSVKGRFTISRDNPKNTLYLQMNSLRAEDTAVYYCARVRANYYYGMDVWGQGTLVTVSS
VL: LTQSPGTLSLSPGERATLSCRASQSVSRLTWYQQKPGQAPRLLIYGTSSRATGIPNRFSGSGSGTDFTLTITRLEPEDFAVYYCQQFRNSLLTFGGGTKVEITR
